Assay results taken from publication PMC12473123, “Structure–Function Insights into Quinuclidine-3-One BisQACs: Synthesis, Modulation of Bacterial Resistance, Structure–Activity Relationship, and Biological Profiling” (Pharmaceuticals, 2025).

How the values were obtained:
Assay type in all cases: cell-based
HEK293 cells = test: Cytotoxicity MTS assay; settings: Homo sapiens, HEK293, 48 h, read-out: IC50 HEK293
Experimental: The cytotoxic potential of the selected drug candidates was evaluated using the CellTiter 96® AQueous One Solution Cell Proliferation Assay (Promega, Madison, WI, USA), following the manufacturer’s protocol. Human cell lines RPE1 and HEK293 were cultured at 37 °C in a humidified incubator with 5% CO2. Test compounds were dissolved in the appropriate growth medium and serially diluted across a range of concentrations in 96-well microtiter plates. Each well was seeded with 5000 cells and incubated for 48 h under standard culture conditions. Following this incubation period, 20 µL of MTS reagent was added to each well, and the plates were further incubated for 3 h to allow for color development. Absorbance was measured at 490 nm using a microplate reader to determine cell viability. Cytotoxicity was quantified as the half-maximal inhibitory concentration (IC50), defined as the concentration of compound that reduced cell viability by 50%. […] IC50 values were calculated using GraFit 6.0 software by plotting compound concentration against absorbance and fitting the data to a sigmoidal dose–response curve.

RPE1 cells = test: Cytotoxicity MTS assay; settings: Homo sapiens, RPE-1, 48 h, read-out: IC50 RPE1
Experimental: The cytotoxic potential of the selected drug candidates was evaluated using the CellTiter 96® AQueous One Solution Cell Proliferation Assay (Promega, Madison, WI, USA), following the manufacturer’s protocol. Human cell lines RPE1 and HEK293 were cultured at 37 °C in a humidified incubator with 5% CO2. Test compounds were dissolved in the appropriate growth medium and serially diluted across a range of concentrations in 96-well microtiter plates. Each well was seeded with 5000 cells and incubated for 48 h under standard culture conditions. Following this incubation period, 20 µL of MTS reagent was added to each well, and the plates were further incubated for 3 h to allow for color development. Absorbance was measured at 490 nm using a microplate reader to determine cell viability. Cytotoxicity was quantified as the half-maximal inhibitory concentration (IC50), defined as the concentration of compound that reduced cell viability by 50%. Commercial antiseptics cetylpyridinium chloride (CPC) and benzidodecyldimethylammonium bromide (BAB) were included as reference controls. IC50 values were calculated using GraFit 6.0 software by plotting compound concentration against absorbance and fitting the data to a sigmoidal dose–response curve.

[1] = test system: Listeria monocytogenes ATCC 7644; test: Biofilm inhibition assay (crystal violet); settings: ATCC7644, read-out: biofilm inhibition
Experimental: (§1) The ability of the candidate compounds to inhibit biofilm formation was evaluated by determining the minimum biofilm inhibitory concentration (MBIC) against the biofilm-forming strains Staphylococcus aureus ATCC 25923 and Listeria monocytogenes ATCC 7644. Overnight bacterial cultures were diluted in fresh, pre-warmed Mueller–Hinton broth (MHB) and incubated at 37 °C with constant shaking at 220 rpm. Once the cultures reached the exponential growth phase (OD600 = 0.3–0.5), they were standardized to a final concentration of 4 × 10^6 CFU/mL.
(§2) Aliquots (50 µL) of the standardized bacterial suspension were inoculated into 96-well microtiter plates containing the test compounds at final concentrations of 100, 50, 25, and 12.5 µg/mL. Plates were incubated at 37 °C for 24 to 48 h, depending on the bacterial strain. After incubation, the planktonic cells were carefully aspirated to preserve the integrity of the biofilm layer. Wells were gently rinsed with sterile ultrapure Milli-Q water and air-dried at 60 °C for 1 h to fix the biofilms. Biofilm formation was quantified using a crystal violet (CV) staining method. Wells were stained with 100 µL of 0.1% CV solution and incubated at room temperature for 1 h. Excess dye was removed by rinsing with sterile ultrapure Milli-Q water, followed by air-drying. Bound CV was solubilized with 100 µL of 70% ethanol and incubated for 30 min. The solubilized dye was transferred to a fresh plate, and absorbance was measured at 595 nm using a microplate reader (Bio-Tek EL808, Winooski, VT, USA). Absorbance values were directly proportional to biofilm biomass. Untreated bacterial cultures served as positive controls for biofilm formation, while sterile MHB served as the negative control.

[2] = test system: Staphylococcus aureus ATCC 25923; test: Biofilm inhibition assay (crystal violet)
Experimental: as §1
as §2, with “Plates” for “Aliquots (50 µL) of the standardized bacterial suspension were inoculated into 96-well microtiter plates containing the test compounds at final concentrations of 100, 50, 25, and 12.5 µg/mL. Plates”, “Bound CV was solubilized with 100 µL of 70% ethanol and incubated for 30 min.” left out, “Untreated bacterial cultures served as positive controls for biofilm formation, while sterile MHB served as the negative control.” left out

[3] = test system: Staphylococcus aureus ATCC 25923; test: Broth microdilution MIC; settings: ATCC25923, read-out: Minimum Inhibitory Concentrations (MIC)

CCCCCCCCCCCCCCCC[n+]1ccccc1 [CPC, cetylpyridinium chloride, reference compound]
IC50 (HEK293 cells): 800 nM | IC50 (RPE1 cells): 3000 nM | inhibition at 12.5 µg/mL [1]: 15% | inhibition at 25 µg/mL [1]: 19% | inhibition at 50 µg/mL [1]: 39% | inhibition at 100 µg/mL [1]: 45% | biofilm inhibition ([2]; S. aureus ATCC 25923, 12.5 µg/mL): > 30% | biofilm inhibition ([2]; S. aureus ATCC 25923, 25 µg/mL): > 70% | MIC [3]: 4 µM
